The values below come from patent publication US20140079774A1.

Amino acid sequences for entries named in this document (tags omitted). Residues count along the entry.
UniProt P08581, residues 25-932: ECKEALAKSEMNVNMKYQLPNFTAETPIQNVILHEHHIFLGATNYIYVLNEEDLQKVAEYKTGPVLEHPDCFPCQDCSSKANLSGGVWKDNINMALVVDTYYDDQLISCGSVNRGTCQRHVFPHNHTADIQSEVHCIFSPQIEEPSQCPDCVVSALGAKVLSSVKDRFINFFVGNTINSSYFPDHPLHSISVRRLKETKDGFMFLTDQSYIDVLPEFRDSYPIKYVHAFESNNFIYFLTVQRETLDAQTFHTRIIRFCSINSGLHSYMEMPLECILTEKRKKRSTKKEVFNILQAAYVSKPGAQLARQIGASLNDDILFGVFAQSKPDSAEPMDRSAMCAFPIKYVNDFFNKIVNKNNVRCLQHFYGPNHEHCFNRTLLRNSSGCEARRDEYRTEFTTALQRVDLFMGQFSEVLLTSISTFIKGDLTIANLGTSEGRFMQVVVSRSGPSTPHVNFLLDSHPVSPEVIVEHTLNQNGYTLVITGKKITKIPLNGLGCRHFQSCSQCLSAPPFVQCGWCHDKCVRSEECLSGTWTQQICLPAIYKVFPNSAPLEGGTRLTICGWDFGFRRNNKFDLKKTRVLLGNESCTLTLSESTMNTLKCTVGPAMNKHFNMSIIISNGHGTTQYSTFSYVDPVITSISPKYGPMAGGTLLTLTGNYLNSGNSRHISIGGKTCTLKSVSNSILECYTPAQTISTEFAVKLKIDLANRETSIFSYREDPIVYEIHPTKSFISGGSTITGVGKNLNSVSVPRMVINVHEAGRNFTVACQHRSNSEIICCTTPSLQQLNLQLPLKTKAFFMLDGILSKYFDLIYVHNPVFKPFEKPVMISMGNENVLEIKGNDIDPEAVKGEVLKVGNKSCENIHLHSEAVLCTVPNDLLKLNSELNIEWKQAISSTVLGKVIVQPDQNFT

To fix the notation:
B1: WPRLTNM peptide, phage-displayed (peptide)
peptide: WPRLTNM
B2: ASVHFPP peptide (MC40 targeting peptide), phage-displayed (peptide)
peptide: ASVHFPP
B3: TATFWFQ peptide, phage-displayed (peptide)
peptide: TATFWFQ
B4: IPLKVHP peptide, phage-displayed (peptide)
peptide: IPLKVHP
B5: TSPVALL peptide, phage-displayed (peptide)
peptide: TSPVALL

Results are given in words; binding and its absence hold for the method and conditions named. Some binding calls cover weakened binding; strength is not graded here.

The target in one test is recombinant human Met (rhMet), fused to the Fc domain of human IgG (human) (UniProt P08581). The test is described as follows: phage display selection on rhMet-Fc / phage ELISA.
Consider B1, for which the binding entry was “binds”.

In the case of B2, the binding entry is “binds”.

For the molecule B3, the binding entry is listed as “binds”.

B4: the binding entry was “binds”.

Take B5: the binding entry was “binds”.

Another test has the same target. The test is described as follows: phage display selection.
For the molecule B2, the binding entry was “binds”.
